Assay results as given in US7794956.
These are yes or no findings as the source states them, for the method shown. Binding seen in cells or lysates may run through a third protein. Some binding calls cover weakened binding; strength is not graded here. One block for each molecule: values may come before it.

Protein sequences, listed by entry. Tags and fused reporters are not part of them. Residues count along the entry.
UniProt P15208, residues 753-1372: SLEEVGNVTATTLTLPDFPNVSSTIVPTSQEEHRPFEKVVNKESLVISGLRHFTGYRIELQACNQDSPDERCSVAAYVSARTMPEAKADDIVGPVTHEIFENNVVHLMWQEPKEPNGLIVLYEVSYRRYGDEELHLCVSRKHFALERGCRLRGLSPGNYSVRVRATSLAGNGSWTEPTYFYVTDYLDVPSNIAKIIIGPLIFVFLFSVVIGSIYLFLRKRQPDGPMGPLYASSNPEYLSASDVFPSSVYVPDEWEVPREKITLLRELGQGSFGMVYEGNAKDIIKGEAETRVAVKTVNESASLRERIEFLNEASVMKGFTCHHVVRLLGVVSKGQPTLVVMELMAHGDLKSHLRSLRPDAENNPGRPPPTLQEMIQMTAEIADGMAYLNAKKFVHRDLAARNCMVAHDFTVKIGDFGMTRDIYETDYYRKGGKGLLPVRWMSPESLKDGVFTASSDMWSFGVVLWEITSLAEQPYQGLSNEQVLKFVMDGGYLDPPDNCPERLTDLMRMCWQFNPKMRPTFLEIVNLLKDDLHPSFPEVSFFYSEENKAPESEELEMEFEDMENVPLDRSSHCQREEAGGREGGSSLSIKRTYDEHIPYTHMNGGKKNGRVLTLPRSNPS
UniProt P35569: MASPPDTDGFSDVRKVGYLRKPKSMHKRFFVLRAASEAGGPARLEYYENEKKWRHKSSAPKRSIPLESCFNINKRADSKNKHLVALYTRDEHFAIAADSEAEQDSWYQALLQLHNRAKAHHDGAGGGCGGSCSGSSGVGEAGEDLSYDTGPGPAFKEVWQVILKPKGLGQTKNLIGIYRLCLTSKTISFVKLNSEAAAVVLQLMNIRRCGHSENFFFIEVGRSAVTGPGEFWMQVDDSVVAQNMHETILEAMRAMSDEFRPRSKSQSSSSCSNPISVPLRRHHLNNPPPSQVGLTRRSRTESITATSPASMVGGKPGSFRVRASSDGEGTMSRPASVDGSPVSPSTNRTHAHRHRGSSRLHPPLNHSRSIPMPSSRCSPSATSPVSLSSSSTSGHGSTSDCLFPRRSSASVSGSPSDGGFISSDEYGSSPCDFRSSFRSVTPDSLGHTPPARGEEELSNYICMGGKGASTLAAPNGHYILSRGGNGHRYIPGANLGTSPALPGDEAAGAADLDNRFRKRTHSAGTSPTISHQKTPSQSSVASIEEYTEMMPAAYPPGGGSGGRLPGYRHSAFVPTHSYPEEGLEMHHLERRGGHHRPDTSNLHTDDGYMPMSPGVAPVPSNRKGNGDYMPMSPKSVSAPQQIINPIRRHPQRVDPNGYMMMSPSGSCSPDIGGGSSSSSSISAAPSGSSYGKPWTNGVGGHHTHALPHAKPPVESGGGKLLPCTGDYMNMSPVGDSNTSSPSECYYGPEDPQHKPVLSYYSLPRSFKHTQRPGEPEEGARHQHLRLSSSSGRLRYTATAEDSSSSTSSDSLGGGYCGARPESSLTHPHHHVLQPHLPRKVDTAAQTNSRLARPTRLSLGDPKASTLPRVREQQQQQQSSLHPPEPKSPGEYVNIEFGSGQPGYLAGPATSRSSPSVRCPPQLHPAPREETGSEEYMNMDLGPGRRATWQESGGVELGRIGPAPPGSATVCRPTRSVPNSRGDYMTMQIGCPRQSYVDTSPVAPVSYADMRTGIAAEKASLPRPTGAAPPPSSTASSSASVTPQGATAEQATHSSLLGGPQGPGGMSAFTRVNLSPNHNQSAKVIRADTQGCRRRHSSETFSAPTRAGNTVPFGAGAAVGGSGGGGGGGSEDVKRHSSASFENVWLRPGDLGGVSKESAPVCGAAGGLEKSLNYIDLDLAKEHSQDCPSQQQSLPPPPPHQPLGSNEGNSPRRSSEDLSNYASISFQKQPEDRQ
UniProt P26450, residues 2-724: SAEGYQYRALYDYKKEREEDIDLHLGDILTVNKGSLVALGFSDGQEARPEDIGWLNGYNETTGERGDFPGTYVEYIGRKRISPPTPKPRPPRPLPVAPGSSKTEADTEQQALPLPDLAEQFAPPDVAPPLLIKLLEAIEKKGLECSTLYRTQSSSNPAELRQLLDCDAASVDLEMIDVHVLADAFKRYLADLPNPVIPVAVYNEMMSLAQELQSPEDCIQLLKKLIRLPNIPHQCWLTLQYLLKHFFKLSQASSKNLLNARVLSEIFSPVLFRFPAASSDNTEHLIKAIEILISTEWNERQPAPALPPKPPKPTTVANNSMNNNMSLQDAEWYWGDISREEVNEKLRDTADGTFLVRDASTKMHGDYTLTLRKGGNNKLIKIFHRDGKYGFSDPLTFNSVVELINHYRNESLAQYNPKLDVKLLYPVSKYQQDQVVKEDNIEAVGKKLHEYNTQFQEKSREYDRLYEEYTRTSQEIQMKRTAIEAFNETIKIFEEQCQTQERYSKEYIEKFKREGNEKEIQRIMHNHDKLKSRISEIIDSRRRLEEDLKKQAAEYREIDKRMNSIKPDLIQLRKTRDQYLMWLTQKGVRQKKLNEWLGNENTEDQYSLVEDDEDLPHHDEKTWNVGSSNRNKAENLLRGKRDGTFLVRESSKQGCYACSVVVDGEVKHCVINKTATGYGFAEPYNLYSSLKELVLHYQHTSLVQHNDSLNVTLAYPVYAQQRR

Legend:
[1] = target: beta subunit of insulin receptor (IRβ) (mouse) (UniProt P15208); assay: co-immunoprecipitation from liver lysates of control and LGKO mice (FIG. 4d)
IRS-1 (mouse) [2] = target: IRS-1 (mouse) (UniProt P35569); assay: co-immunoprecipitation: IRS-1 immunoprecipitated from mouse liver lysates, immunoblot for p85α
IRS-2 (mouse) [3] = target: T1, IRS-2 (mouse) (UniProt P81122); assay: co-immunoprecipitation from mouse liver lysates, blots quantified
T1 sequence (looked up): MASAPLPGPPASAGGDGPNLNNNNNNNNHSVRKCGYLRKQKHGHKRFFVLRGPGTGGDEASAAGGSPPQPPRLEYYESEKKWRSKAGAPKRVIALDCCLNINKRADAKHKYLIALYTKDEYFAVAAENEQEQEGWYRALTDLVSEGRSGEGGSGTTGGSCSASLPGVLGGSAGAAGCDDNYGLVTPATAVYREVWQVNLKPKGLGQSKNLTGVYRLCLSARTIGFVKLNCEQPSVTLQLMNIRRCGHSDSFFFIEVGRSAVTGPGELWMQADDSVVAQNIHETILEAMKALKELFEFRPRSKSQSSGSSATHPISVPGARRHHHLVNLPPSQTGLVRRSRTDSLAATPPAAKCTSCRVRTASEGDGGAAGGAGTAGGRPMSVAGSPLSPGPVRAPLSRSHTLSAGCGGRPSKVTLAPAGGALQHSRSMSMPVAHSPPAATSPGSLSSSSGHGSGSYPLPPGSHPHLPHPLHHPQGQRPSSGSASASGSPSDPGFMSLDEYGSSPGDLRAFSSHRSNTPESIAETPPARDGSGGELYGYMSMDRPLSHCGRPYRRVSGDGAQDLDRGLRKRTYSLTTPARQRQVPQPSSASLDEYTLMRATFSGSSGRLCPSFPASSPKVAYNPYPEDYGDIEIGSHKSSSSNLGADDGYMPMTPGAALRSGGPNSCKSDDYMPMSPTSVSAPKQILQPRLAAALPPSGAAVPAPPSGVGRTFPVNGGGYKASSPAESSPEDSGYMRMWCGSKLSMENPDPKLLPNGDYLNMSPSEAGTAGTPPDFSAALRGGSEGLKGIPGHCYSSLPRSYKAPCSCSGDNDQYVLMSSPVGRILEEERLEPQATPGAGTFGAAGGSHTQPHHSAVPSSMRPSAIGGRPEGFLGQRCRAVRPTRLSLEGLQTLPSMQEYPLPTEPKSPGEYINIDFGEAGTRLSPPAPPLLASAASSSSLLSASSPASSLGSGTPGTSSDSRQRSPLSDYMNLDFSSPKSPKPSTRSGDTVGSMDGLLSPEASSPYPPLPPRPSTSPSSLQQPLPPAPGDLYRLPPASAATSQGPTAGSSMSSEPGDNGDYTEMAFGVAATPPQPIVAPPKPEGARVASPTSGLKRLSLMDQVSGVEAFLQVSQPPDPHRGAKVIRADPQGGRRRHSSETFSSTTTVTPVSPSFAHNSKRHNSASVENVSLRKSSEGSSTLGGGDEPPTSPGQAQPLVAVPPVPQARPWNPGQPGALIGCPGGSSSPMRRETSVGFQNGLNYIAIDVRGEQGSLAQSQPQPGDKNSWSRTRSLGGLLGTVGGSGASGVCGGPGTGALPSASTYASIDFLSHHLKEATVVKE

IRS-1 (mouse) [4] = target: IRS-1 (mouse) (UniProt P35569); assay: as above
IRS-2 (mouse) [5] = target: T1, IRS-2 (mouse); assay: co-immunoprecipitation: IRS-2 immunoprecipitated from mouse liver lysates, immunoblot for p85α

- binding [1]: binds
Molecule: IRS-1 (from UniProt P35569 1-1233)

- binding (IRS-1 (mouse) [2]): binds
- binding (IRS-2 (mouse) [3]): binds
- binding (IRS-1 (mouse) [4]): binds
- binding (IRS-2 (mouse) [5]): binds
Molecule: p85.alpha. subunit of PI3-kinase (from UniProt P26450 2-724)

- binding [1]: binds
B1: IRS-2 (protein, mouse, UniProt P81122 1-1321, looked up)
chain: T1 sequence (looked up)
